Part of at least one peptide drawing is inferred or uncertain, most often the ends. Some of these results come from one statement about several compounds together. Numbered stars: 1 amine (or outer) side, 2 acyl side, 3 side chain; on linkers, the order of the positions; unused ones are H or OH. Bridge positions count the residues as written; N and C are the ends. Square brackets hold non-standard residues; d marks the D form. Peptide text beside a SMILES is read from it. * marks the point of attachment. C18 diacid = O=C(O)CCCCCCCCCCCCCCCCC(=O)*; γGlu = O=C(O)[C@H](CCC(=O)[*:2])N[*:1]; Aad = N[C@@H](CCCC(=O)O)C(=O)O; AEEA = NCCOCCOCC(=O)O
What was measured:
[1] = Pharmacokinetic study of dCNP-s1 and dCNP-s2: plasma CNP after subcutaneous bolus in CD-1 mice; assay type: in vivo; details: subcutaneous bolus 2.0 mg/Kg, FIG. 30
Description: For this pharmacokinetic study, all animals (mice) for this study were maintained under a 12-hour light/12-hour dark cycle with free access to water and standard mouse diet (Lab Pico Rodent #5053; Animal Specialties, Woodburn, Oreg.). Male CD-1 mice (6-8 weeks old; Charles River, Hollister, Calif.) were treated with 2.0 mg/Kg of CNP derivative s1 (dCNP-s1; PharmaIN Corp, Bothell, Wash.), and CNP derivative s2 (dCNP-s2: PharmaIN Corp, Bothell, Wash.) via subcutaneous bolus administration between the shoulder blades.

[2] = test system: TRAMPC-1 mouse prostate cancer cells; assay: Prostate cancer subcutaneous model, treatment from day 19, tumor size; assay type: in vivo, mice
Description: In this study, male C57BL/6J mice (6 weeks old, male, n=10) were purchased from Kyodo (Saga, Japan) and maintained under a 12-hour light/12-hour dark cycle with free access to water and standard mouse diet (MF diet; Oriental Yeast Co., Ltd. Tokyo Japan). Mice were implanted with TRAMPC-1 mouse prostate cancer cells (1,000,000 cells/mouse) (ATCC, Manassas, Va.) in the subcutaneous. From the 19th day (averaged tumor size was 70 mm3), mice were treated with a bolus dose of long acting CNP derivative or dCNP (described in Example 1) (0.3 mg/kg s.c. or 1.0 mg/kg s.c.) in buffer [Methionine 100 mM (Tokyo Chemical Industry Co., Ltd., Tokyo, Japan); Sucrose 100 mM (Tokyo Chemical Industry Co., Ltd.); Histidine 50 mM (Tokyo Chemical Industry Co., Ltd.); in H2O (Otsuka Pharmaceutical. Tokushima, Japan)], Docetaxel (DTX1 mg/kg i.p.) in Saline, all with or without anti-CD8 (5 mg/Kg i.p.; BioX cell; West Lebanon, N.H.) or Phosphate buffered saline (PBS) alone via i.p. All Docetaxel groups were used as mechanism of action comparator chemotherapeutic agent. Mice were treated total of two weeks (5 days of once daily, 2 days of rest, 5 days of once-daily treatment and 2 days rest). Anti-CD8 Ab was administered every 3 days starting day 19th. Tumor sizes were measured with caliper.

Compound	duration of sustained blood level of CNP [1]	prostate tumor elimination ([2]; administration started at day 19 (tumor size ~70 mm3), evaluated at Day 30)	anti-tumor effect with anti-CD8 antibody ([2]; anti-CD8 5 mg/Kg i.p., treatment from day 19)
CC[C@H](C)[C@@H]1NC(=O)[C@H](CCCNC(=N)N)NC(=O)[C@H](CC(=O)O)NC(=O)[C@H](CC(C)C)NC(=O)[C@H](CCCCN)NC(=O)[C@H](CC(C)C)NC(=O)CNC(=O)[C@H](Cc2ccccc2)NC(=O)[C@@H](NC(=O)CNC(=O)COCCOCCNC(=O)COCCOCCNC(=O)CCCCCCCCCCCCCCCCC(=O)O)CSSC[C@@H](C(=O)O)NC(=O)CNC(=O)[C@H](CC(C)C)NC(=O)CNC(=O)[C@H](CO)NC(=O)[C@H](CCCC(N)=O)NC(=O)[C@H](CO)NC(=O)CNC1=O [dCNP-s1] ({C18 diacid-AEEA-AEEA}-GCFGLKLDRIGS[Aad](NH2)SGLGC-OH; disulfide 2-18)	at least 8 hours	–	–
CC[C@H](C)[C@@H]1NC(=O)[C@H](CCCNC(=N)N)NC(=O)[C@H](CC(=O)O)NC(=O)[C@H](CC(C)C)NC(=O)[C@H](CCCCN)NC(=O)[C@H](CC(C)C)NC(=O)CNC(=O)[C@H](Cc2ccccc2)NC(=O)[C@@H](NC(=O)CNC(=O)COCCOCCNC(=O)COCCOCCNC(=O)CC[C@H](NC(=O)CCCCCCCCCCCCCCCCC(=O)O)C(=O)O)CSSC[C@@H](C(=O)O)NC(=O)CNC(=O)[C@H](CC(C)C)NC(=O)CNC(=O)[C@H](CO)NC(=O)[C@H](CCCC(N)=O)NC(=O)[C@H](CO)NC(=O)CNC1=O [dCNP-s2] ({C18 diacid-γGlu-AEEA-AEEA}-GCFGLKLDRIGS[Aad](NH2)SGLGC-OH; disulfide 2-18)	at least 8 hours	–	–
CCCCCCCCCCCCCCCCCC(=O)N[C@@H](CCCCN)C(=O)N[C@@H](CCCCN)C(=O)N[C@@H](CCCCN)C(=O)N[C@@H](CCCCN)C(=O)NCC(=O)NCC(=O)NCC(=O)NCC(=O)N[C@@H](CC(C)C)C(=O)N[C@@H](CO)C(=O)N[C@@H](CCCCN)C(=O)NCC(=O)N[C@H]1CSSC[C@@H](C(=O)O)NC(=O)CNC(=O)[C@H](CC(C)C)NC(=O)CNC(=O)[C@H](CO)NC(=O)[C@H](CCSC)NC(=O)[C@H](CO)NC(=O)CNC(=O)[C@H]([C@@H](C)CC)NC(=O)[C@H](CCCNC(=N)N)NC(=O)[C@H](CC(=O)O)NC(=O)[C@H](CC(C)C)NC(=O)[C@H](CCCCN)NC(=O)[C@H](CC(C)C)NC(=O)CNC(=O)[C@H](Cc2ccccc2)NC1=O [dCNP]	–	as effective as the cytotoxic chemotherapeutic agent in eliminating tumor	could be neutralized by anti-CD8 antibody

Reference: US20230241164A1, “C-Type Natriuretic Peptides and Methods Thereof in Treating Cancer” (PHARMAIN CORPORATION, priority 2020, published 2023)
